According to the supplement of paper PMC4862054:
Most entries show no effect beyond the scatter of the controls.

Legend:
Experiment in all cases: normalised response (% of control), CellTox Green; higher = less cell death (100 = DMSO, 0 = benzethonium chloride kill control)
Details in all cases: incubation time: 72 h
MCF-10A [1] = system: MCF-10A
Protocol: (§1)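 DSRT, 72 h incubation, CellTox Green / CellTiter-Glo readout. Signal is normalised to DMSO and benzethonium chloride controls. Value is the normalised response at the lowest tested concentration.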

MDA-MB-231 [2] = system: MDA-MB-231
Protocol: as §1

DU-4475 [3] = system: DU-4475
Protocol: as §1

HCC1143 [4] = system: HCC1143
Protocol: as §1

BT-549 [5] = system: BT-549
Protocol: as §1

CAL-120 [6] = system: CAL-120
Protocol: as §1

CAL-51 [7] = system: CAL-51
Protocol: as §1

MDA-MB-468 [8] = system: MDA-MB-468
Protocol: as §1

CAL-85-1 [9] = system: CAL-85-1
Protocol: as §1

MDA-MB-453 [10] = system: MDA-MB-453
Protocol: as §1

HCC1599 [11] = system: HCC1599
Protocol: as §1

MFM-223 [12] = system: MFM-223
Protocol: as §1

BT-474 [13] = system: BT-474
Protocol: as §1

CAL-148 [14] = system: CAL-148
Protocol: as §1

Hs578T [15] = system: Hs578T
Protocol: as §1

HCC1937 = system: HCC1937
Protocol: (§2)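 DSRT, 72 h incubation, CellTox Green / CellTiter-Glo readout. Signal is normalised to DMSO and benzethonium chloride controls. Value is the normalised response at dose 2.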

MCF-10A [16] = system: MCF-10A; remark: listed apart in the source
Protocol: as §2

MDA-MB-231 [17] = system: MDA-MB-231; remark: listed apart in the source
Protocol: as §2

DU-4475 [18] = system: DU-4475; remark: listed apart in the source
Protocol: as §2

HCC1143 [19] = system: HCC1143; remark: listed apart in the source
Protocol: as §2

BT-549 [20] = system: BT-549; remark: listed apart in the source
Protocol: as §2

CAL-120 [21] = system: CAL-120; remark: listed apart in the source
Protocol: as §2

HDQ-P1 = system: HDQ-P1
Protocol: as §2

CAL-51 [22] = system: CAL-51; remark: listed apart in the source
Protocol: as §2

MDA-MB-468 [23] = system: MDA-MB-468; remark: listed apart in the source
Protocol: as §2

CAL-85-1 [24] = system: CAL-85-1; remark: listed apart in the source
Protocol: as §2

MDA-MB-453 [25] = system: MDA-MB-453; remark: listed apart in the source
Protocol: as §2

HCC1599 [26] = system: HCC1599; remark: listed apart in the source
Protocol: as §2

MDA-MB-436 [27] = system: MDA-MB-436
Protocol: as §2

MFM-223 [28] = system: MFM-223; remark: listed apart in the source
Protocol: as §2

BT-474 [29] = system: BT-474; remark: listed apart in the source
Protocol: as §2

CAL-148 [30] = system: CAL-148; remark: listed apart in the source
Protocol: as §2

Hs578T [31] = system: Hs578T; remark: listed apart in the source
Protocol: as §2

MDA-MB-436 [32] = system: MDA-MB-436; remark: listed apart in the source
Protocol: as §1

For `O=C1CN2Cc3c(ccc(Cl)c3Cl)N=C2N1` [Anagrelide] (1 nM), the normalised response (MCF-10A [1]) was 97.3%, the normalised response (MDA-MB-231 [2]) was 111% and the normalised response (DU-4475 [3]) was 100%. For the same molecule, the normalised response (HCC1143 [4]) was 108%, the normalised response (BT-549 [5]) was 88.3% and the normalised response (CAL-120 [6]) was 97.8%. For the same molecule, the normalised response (CAL-51 [7]) was 118%, the normalised response (MDA-MB-468 [8]) was 87.9% and the normalised response (CAL-85-1 [9]) was 106%. For the same molecule, the normalised response (MDA-MB-453 [10]) was 100%, the normalised response (HCC1599 [11]) was 100% and the normalised response (MFM-223 [12]) was 73.6%. For the same molecule, the normalised response (BT-474 [13]) was 100%, the normalised response (CAL-148 [14]) was 103% and the normalised response (Hs578T [15]) was 75.2%.

`O=S(=O)(c1cccc2cnccc12)N1CCCNCC1` [Fasudil] (50 nM) was tested, and the normalised response (HCC1937) was 103%, the normalised response (MCF-10A [16]) was 105% and the normalised response (MDA-MB-231 [17]) was 75.5%. The normalised response (DU-4475 [18]) was 102%, the normalised response (HCC1143 [19]) was 101% and the normalised response (BT-549 [20]) was 89.6%. It also gave a normalised response (CAL-120 [21]) of 104%, a normalised response (HDQ-P1) of 110% and a normalised response (CAL-51 [22]) of 115%. For the same molecule, the normalised response (MDA-MB-468 [23]) was 84.2%, the normalised response (CAL-85-1 [24]) was 105% and the normalised response (MDA-MB-453 [25]) was 95.5%. The normalised response (HCC1599 [26]) was 101%, the normalised response (MDA-MB-436 [27]) was 101% and the normalised response (MFM-223 [28]) was 82.3%. The normalised response (BT-474 [29]) was 98.9% and the normalised response (CAL-148 [30]) was 101%.

`CCS(=O)(=O)c1cccc(-c2cc(C(=O)NC3CCN(C)CC3)c(C)c3[nH]c4ncc(C)cc4c23)c1` [TAK-901] (1 nM) showed a normalised response (HCC1937) of 83.1%, a normalised response (MCF-10A [16]) of 100% and a normalised response (DU-4475 [18]) of 101%. For the same molecule, the normalised response (BT-549 [20]) was 105%, the normalised response (CAL-120 [21]) was 103% and the normalised response (HDQ-P1) was 88.6%. It also gave a normalised response (CAL-51 [22]) of 90.1%, a normalised response (CAL-85-1 [24]) of 93.8% and a normalised response (MDA-MB-453 [25]) of 99.4%. For the same molecule, the normalised response (HCC1599 [26]) was 102%, the normalised response (MDA-MB-436 [27]) was 109% and the normalised response (MFM-223 [28]) was 100%. For the same molecule, the normalised response (BT-474 [29]) was 92.8% and the normalised response (CAL-148 [30]) was 106%.

For `CC(C)Cn1cnc2c(N)nc3ccccc3c21` [Imiquimod] (2.5 nM), the normalised response (HCC1937) was 117%, the normalised response (MCF-10A [16]) was 110% and the normalised response (MDA-MB-231 [17]) was 109%. The normalised response (DU-4475 [18]) was 100%, the normalised response (HCC1143 [19]) was 81.7% and the normalised response (BT-549 [20]) was 98.9%. It also gave a normalised response (CAL-120 [21]) of 98.4%, a normalised response (HDQ-P1) of 123% and a normalised response (CAL-51 [22]) of 105%. The normalised response (MDA-MB-468 [23]) was 108%, the normalised response (CAL-85-1 [24]) was 105% and the normalised response (MDA-MB-453 [25]) was 97.8%. The normalised response (HCC1599 [26]) was 103%, the normalised response (MDA-MB-436 [27]) was 83.9% and the normalised response (MFM-223 [28]) was 102%. For the same molecule, the normalised response (BT-474 [29]) was 103% and the normalised response (CAL-148 [30]) was 94.8%.

`Cn1nnc2c(C(N)=O)ncn2c1=O` [Temozolomide] (10 nM) gave a normalised response (HCC1937) of 110%, a normalised response (MCF-10A [16]) of 95.9% and a normalised response (MDA-MB-231 [17]) of 102%. For the same molecule, the normalised response (DU-4475 [18]) was 94.2%, the normalised response (HCC1143 [19]) was 74.6% and the normalised response (BT-549 [20]) was 110%. The normalised response (CAL-120 [21]) was 97.7%, the normalised response (CAL-51 [22]) was 102% and the normalised response (MDA-MB-468 [23]) was 118%. The normalised response (CAL-85-1 [24]) was 96.5%, the normalised response (MDA-MB-453 [25]) was 76.2% and the normalised response (HCC1599 [26]) was 92.8%. It also gave a normalised response (MDA-MB-436 [27]) of 93.8%, a normalised response (MFM-223 [28]) of 96.5% and a normalised response (BT-474 [29]) of 101%. It also gave a normalised response (CAL-148 [30]) of 72.6% and a normalised response (Hs578T [31]) of 123%.

`Cc1sc2c(c1C)C(c1ccc(Cl)cc1)=N[C@@H](CC(=O)OC(C)(C)C)c1nnc(C)n1-2` [(+)JQ1] (10 nM) showed a normalised response (HCC1937) of 68.4%, a normalised response (MCF-10A [16]) of 113% and a normalised response (MDA-MB-231 [17]) of 104%. It also gave a normalised response (DU-4475 [18]) of 109%, a normalised response (HCC1143 [19]) of 120% and a normalised response (BT-549 [20]) of 52.4%. It also gave a normalised response (CAL-120 [21]) of 99.5%, a normalised response (CAL-51 [22]) of 99.6% and a normalised response (MDA-MB-468 [23]) of 99.3%. The normalised response (CAL-85-1 [24]) was 96.8%, the normalised response (MDA-MB-453 [25]) was 105% and the normalised response (HCC1599 [26]) was 108%. It also gave a normalised response (MDA-MB-436 [27]) of 88.9%, a normalised response (MFM-223 [28]) of 51.4% and a normalised response (BT-474 [29]) of 103%. For the same molecule, the normalised response (Hs578T [31]) was 101%.

Molecule `Cc1ccc(NC(=O)c2ccc(CN3CCN(C)CC3)cc2)cc1Nc1nc(-c2cccnc2)cs1` [Masitinib] (10 nM) has a normalised response (HCC1937) of 81.1%, a normalised response (MCF-10A [16]) of 85.4% and a normalised response (MDA-MB-231 [17]) of 86.5%. It also gave a normalised response (DU-4475 [18]) of 104%, a normalised response (HCC1143 [19]) of 113% and a normalised response (BT-549 [20]) of 102%. The normalised response (CAL-120 [21]) was 106%, the normalised response (HDQ-P1) was 113% and the normalised response (CAL-51 [22]) was 99.5%. For the same molecule, the normalised response (MDA-MB-468 [23]) was 70.7%, the normalised response (CAL-85-1 [24]) was 103% and the normalised response (MDA-MB-453 [25]) was 105%. For the same molecule, the normalised response (HCC1599 [26]) was 108%, the normalised response (MDA-MB-436 [27]) was 102% and the normalised response (MFM-223 [28]) was 97.8%. The normalised response (BT-474 [29]) was 102% and the normalised response (CAL-148 [30]) was 87.2%.

For `COc1cc2c(NC3CCN(C(C)C)CC3)nc(C3CCCCC3)nc2cc1OCCCN1CCCC1` [UNC0638] (1 nM), the normalised response (DU-4475 [3]) was 98.9%, the normalised response (HCC1143 [4]) was 114% and the normalised response (BT-549 [5]) was 102%. For the same molecule, the normalised response (CAL-120 [6]) was 101%, the normalised response (CAL-51 [7]) was 112% and the normalised response (MDA-MB-468 [8]) was 84.4%. It also gave a normalised response (CAL-85-1 [9]) of 107%, a normalised response (MDA-MB-453 [10]) of 96.7% and a normalised response (HCC1599 [11]) of 106%. It also gave a normalised response (MDA-MB-436 [32]) of 101%, a normalised response (MFM-223 [12]) of 87.8% and a normalised response (BT-474 [13]) of 97.2%. For the same molecule, the normalised response (CAL-148 [14]) was 97.8% and the normalised response (Hs578T [15]) was 105%.
